Measurements: patent US4113736A, “2-Phenyl-indole derivatives” (priority 1975, dated 1978)

What was measured:
[1] = Static thermostability of stabilized polyvinyl chloride resin, simplified method with GARDNER sub-scale, 210° C.
[2] = Static thermostability of stabilized polyvinyl chloride resin, GARDNER Scale comparator, 185° C.
Protocol: The stabilizing power of the substances of the invention was studied by determining the static thermostability of the following resin: […]
Polyvinyl chloride resin
Calcium-12-hydroxy-stearate
Stabilizer from 0.1 to 1
SL 2016 represents a solution of zinc-2-ethyl-hexanoate in a mixture of aromatic hydrocarbons boiling between 158° and 184° C.
The different ingredients were mixed and calendered in a mixer of which the cylinders were heated to 160° C.
The rigid sheets so obtained were then heated in a oven to a temperature of 185° or 210° C., until incipient carbonization.
A oven with a rotating drum, ventilated and equipped with a thermostat was used for this operation.
In the trials described hereunder the behaviour of the sheets containing one of the stabilizers to be tested was compared to that of sheets of the same formula but containing 2-phenyl-indole as stabilizer.
Comparison can be made by one of two methods, namely:
(1) The coloration of the sheets, of which samples were removed from the oven at fixed intervals, was compared to a standard scale of coloration, known as the GARDNER Scale, and expressed in terms of the reference figures of the GARDNER Scale.
Comparisons were made with a GARDNER Scale comparator which contains 18 filters of colored glass and which offers the possibility of observing simultaneously by transparency and in a limited field of view both the sheet and the reference filters.
It may happen that the color of the sheets is far removed from that of the GARDNER Scale, in which case comparison is difficult, if not impossible.
The following results were obtained at a temperature of 185° C., using the method described above: […]

c1ccc(-c2cc3ccccc3[nH]2)cc1 [2-phenyl-indole]
Coloration of the sheets ([1]; 0 minutes): 1 GARDNER degrees
Coloration of the sheets ([1]; 3 minutes): 2 GARDNER degrees and 1 GARDNER degrees
Coloration of the sheets ([1]; 6 minutes): 3 GARDNER degrees and 2 GARDNER degrees
Coloration of the sheets ([1]; 12 minutes): 11 GARDNER degrees and 10 GARDNER degrees and 12 GARDNER degrees
Coloration of the sheets ([1]; 15 minutes): 13 GARDNER degrees and 12 GARDNER degrees and 19 GARDNER degrees
Coloration of the sheets ([1]; 18 minutes): burnt
Coloration of the sheets ([2]; 0 minutes): 1 GARDNER degrees
Coloration of the sheets ([2]; 6 minutes): 2 GARDNER degrees and 1 GARDNER degrees
Coloration of the sheets ([2]; 12 minutes): 5 GARDNER degrees and 4 GARDNER degrees and 3 GARDNER degrees
Coloration of the sheets ([2]; 18 minutes): 8 GARDNER degrees and 9 GARDNER degrees and 7 GARDNER degrees and 5 GARDNER degrees
Coloration of the sheets ([2]; 24 minutes): 12 GARDNER degrees and 11 GARDNER degrees and 10 GARDNER degrees
Coloration of the sheets ([2]; 30 minutes): 13 GARDNER degrees and 14 GARDNER degrees and 15 GARDNER degrees and 11 GARDNER degrees
Coloration of the sheets ([2]; 36 minutes): 15 GARDNER degrees and 14 GARDNER degrees and 13 GARDNER degrees
Coloration of the sheets ([2]; 42 minutes): 15 GARDNER degrees and 16 GARDNER degrees and 14 GARDNER degrees and 13 GARDNER degrees
Coloration of the sheets ([2]; 48 minutes): 16 GARDNER degrees and 15 GARDNER degrees
Coloration of the sheets ([2]; 54 minutes): 16 GARDNER degrees and 17 GARDNER degrees and 18 GARDNER degrees and 15 GARDNER degrees
Coloration of the sheets ([2]; 60 minutes): burnt

Where “and” joins values, the source holds several entries; their conditions need not be identical. Equal entries are not always repeated.
